{"source": "PubChem BioAssay AID652272, Drosophila RNAi Screening Center | 2013", "screen": "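Genes whose knock-down decreases or increases Hedgehog reporter output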 (primary screen)", "cell system": "Drosophila clone 8 (Cl8) cells", "reagent": "long dsRNA against Drosophila genes", "measurement": "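Firefly light from a Hedgehog-responsive ptc promoter reporter and Renilla reference light, both read on a plate reader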", "direction": "firefly Hh reporter signal: higher = more ptc reporter light; Renilla reference signal: higher = more Renilla control light", "active means": "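Hit when the z-score averaged over two replicates is under -2 or over +3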", "meaning of the calls": "active = hit: reporter lowered or raised; inactive = not a hit", "note": "The deposit covers about 21,000 reagents; this is an unselected part of those that have a named target and a result. In the full data, 503 (2.4%) got an active call. 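Raw plate light values, not normalised; calls rest on replicate z-scores that were not deposited; hits include reporter decreases as well as increases.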 Unmarked entries are inactive. Reagent sequences are not shown. The record does not give: the amount of reagent, the time to read-out."}
{"gene": "mip130 (Myb-interacting protein 130)", "amplicon": "DRSC18575", "firefly Hh reporter signal, replicate 1": 88003, "firefly Hh reporter signal, replicate 2": 1.71e5, "Renilla reference signal, replicate 1": 4197, "Renilla reference signal, replicate 2": 7162}
{"gene": "CG6966", "amplicon": "DRSC16156", "firefly Hh reporter signal, replicate 1": 58250, "firefly Hh reporter signal, replicate 2": 86234, "Renilla reference signal, replicate 1": 1930, "Renilla reference signal, replicate 2": 2233}
{"gene": "CG7606", "amplicon": "DRSC13246", "firefly Hh reporter signal, replicate 1": 51600, "firefly Hh reporter signal, replicate 2": 2.09e5, "Renilla reference signal, replicate 1": 10775, "Renilla reference signal, replicate 2": 5560}
{"gene": "CG7606", "amplicon": "DRSC16268", "firefly Hh reporter signal, replicate 1": 93027, "firefly Hh reporter signal, replicate 2": 95899, "Renilla reference signal, replicate 1": 4080, "Renilla reference signal, replicate 2": 2325}
{"gene": "Fntb (Farnesyl transferase beta subunit)", "amplicon": "DRSC15244", "firefly Hh reporter signal, replicate 1": 1.05e5, "firefly Hh reporter signal, replicate 2": 77876, "Renilla reference signal, replicate 1": 4098, "Renilla reference signal, replicate 2": 2674}
{"gene": "CG12011", "amplicon": "DRSC08219", "firefly Hh reporter signal, replicate 1": 1.03e5, "firefly Hh reporter signal, replicate 2": 71448, "Renilla reference signal, replicate 1": 2887, "Renilla reference signal, replicate 2": 5787}
{"gene": "Rh50", "amplicon": "DRSC08692", "firefly Hh reporter signal, replicate 1": 1.12e5, "firefly Hh reporter signal, replicate 2": 77605, "Renilla reference signal, replicate 1": 4525, "Renilla reference signal, replicate 2": 2972}
{"gene": "CG2656", "amplicon": "DRSC12584", "firefly Hh reporter signal, replicate 1": 1.28e5, "firefly Hh reporter signal, replicate 2": 98445, "Renilla reference signal, replicate 1": 4842, "Renilla reference signal, replicate 2": 3225}
{"gene": "ari-1 (ariadne 1)", "amplicon": "DRSC20308", "firefly Hh reporter signal, replicate 1": 1.23e5, "firefly Hh reporter signal, replicate 2": 4.17e5, "Renilla reference signal, replicate 1": 3898, "Renilla reference signal, replicate 2": 15653}
{"gene": "Cyp12c1 (Cytochrome P450 12c1)", "amplicon": "DRSC11125", "firefly Hh reporter signal, replicate 1": 78280, "firefly Hh reporter signal, replicate 2": 43205, "Renilla reference signal, replicate 1": 3953, "Renilla reference signal, replicate 2": 1297}
{"gene": "CG32829", "amplicon": "DRSC00961", "firefly Hh reporter signal, replicate 1": 9.28e5, "firefly Hh reporter signal, replicate 2": 9.26e5, "firefly Hh reporter signal, replicate 3": 3.55e5, "Renilla reference signal, replicate 1": 52736, "Renilla reference signal, replicate 2": 3094}
{"gene": "CG6972", "amplicon": "DRSC16159", "firefly Hh reporter signal, replicate 1": 5.57e5, "firefly Hh reporter signal, replicate 2": 1.12e5, "Renilla reference signal, replicate 1": 27907, "Renilla reference signal, replicate 2": 3639}
{"gene": "Acsf3 (Acyl-CoA synthetase family member 3)", "amplicon": "DRSC18146", "firefly Hh reporter signal, replicate 1": 84172, "firefly Hh reporter signal, replicate 2": 2.67e5, "Renilla reference signal, replicate 1": 3117, "Renilla reference signal, replicate 2": 9725}
{"gene": "CG8369", "amplicon": "DRSC16413", "firefly Hh reporter signal, replicate 1": 76466, "firefly Hh reporter signal, replicate 2": 76871, "Renilla reference signal, replicate 1": 3010, "Renilla reference signal, replicate 2": 2796}
{"gene": "CCHa2 (CCHamide-2)", "amplicon": "DRSC14835", "firefly Hh reporter signal, replicate 1": 1.73e5, "firefly Hh reporter signal, replicate 2": 6.40e5, "firefly Hh reporter signal, replicate 3": 1.52e5, "Renilla reference signal, replicate 1": 4978, "Renilla reference signal, replicate 2": 5360}
{"gene": "CG4382", "amplicon": "DRSC02743", "firefly Hh reporter signal, replicate 1": 1.56e5, "firefly Hh reporter signal, replicate 2": 93424, "Renilla reference signal, replicate 1": 3850, "Renilla reference signal, replicate 2": 7109}
{"gene": "CG12895", "amplicon": "DRSC06210", "firefly Hh reporter signal, replicate 1": 1.44e5, "firefly Hh reporter signal, replicate 2": 71329, "Renilla reference signal, replicate 1": 3728, "Renilla reference signal, replicate 2": 6225}
{"gene": "Rtc1", "amplicon": "DRSC20285", "firefly Hh reporter signal, replicate 1": 1.04e5, "firefly Hh reporter signal, replicate 2": 49895, "Renilla reference signal, replicate 1": 2134, "Renilla reference signal, replicate 2": 987}
{"gene": "CG9875", "amplicon": "DRSC04585", "firefly Hh reporter signal, replicate 1": 90210, "firefly Hh reporter signal, replicate 2": 61301, "Renilla reference signal, replicate 1": 1915, "Renilla reference signal, replicate 2": 6086}
{"gene": "CG15877", "amplicon": "DRSC08485", "firefly Hh reporter signal, replicate 1": 65303, "firefly Hh reporter signal, replicate 2": 50160, "Renilla reference signal, replicate 1": 1905, "Renilla reference signal, replicate 2": 3569}
{"gene": "Cpr47Ea (Cuticular protein 47Ea)", "amplicon": "DRSC07333", "firefly Hh reporter signal, replicate 1": 1.49e5, "firefly Hh reporter signal, replicate 2": 73600, "Renilla reference signal, replicate 1": 3821, "Renilla reference signal, replicate 2": 5904}

3 consecutive records from above:
{"gene": "CG6972", "amplicon": "DRSC16159", "firefly Hh reporter signal, replicate 1": 5.57e5, "firefly Hh reporter signal, replicate 2": 1.12e5, "Renilla reference signal, replicate 1": 27907, "Renilla reference signal, replicate 2": 3639}
{"gene": "Acsf3 (Acyl-CoA synthetase family member 3)", "amplicon": "DRSC18146", "firefly Hh reporter signal, replicate 1": 84172, "firefly Hh reporter signal, replicate 2": 2.67e5, "Renilla reference signal, replicate 1": 3117, "Renilla reference signal, replicate 2": 9725}
{"gene": "CG8369", "amplicon": "DRSC16413", "firefly Hh reporter signal, replicate 1": 76466, "firefly Hh reporter signal, replicate 2": 76871, "Renilla reference signal, replicate 1": 3010, "Renilla reference signal, replicate 2": 2796}
